These are yes or no findings as the source states them, for the method shown. Binding seen in cells or lysates may run through a third protein. Here binding means that the protein was enriched with, or labelled near, the bait; the list need not be complete.
How the values were obtained:
Assay in all cases: GRB2 immunoprecipitation-mass spectrometry in HEK293T cells [panel G]
CBX4 (human) = biological target: T1, CBX4 (human) (UniProt O00257)
T1 sequence (looked up): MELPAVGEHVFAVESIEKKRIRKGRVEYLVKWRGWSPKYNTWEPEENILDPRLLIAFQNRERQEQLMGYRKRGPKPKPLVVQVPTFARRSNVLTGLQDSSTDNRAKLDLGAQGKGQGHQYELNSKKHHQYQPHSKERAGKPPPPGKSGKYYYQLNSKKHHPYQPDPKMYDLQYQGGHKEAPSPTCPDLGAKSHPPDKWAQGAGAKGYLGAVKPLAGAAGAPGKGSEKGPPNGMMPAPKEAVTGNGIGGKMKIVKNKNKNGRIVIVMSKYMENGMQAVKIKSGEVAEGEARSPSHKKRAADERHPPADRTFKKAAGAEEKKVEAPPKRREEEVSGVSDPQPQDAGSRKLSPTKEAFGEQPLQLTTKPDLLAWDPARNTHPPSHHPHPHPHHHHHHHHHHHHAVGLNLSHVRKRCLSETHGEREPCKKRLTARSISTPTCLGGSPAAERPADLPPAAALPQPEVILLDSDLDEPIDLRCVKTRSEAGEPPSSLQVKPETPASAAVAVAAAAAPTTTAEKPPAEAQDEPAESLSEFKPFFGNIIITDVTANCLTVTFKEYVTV

Sequences of proteins named here, by UniProt entry; tags and fusion partners are left off. Residues count along the entry.
UniProt Q7Z6Z7: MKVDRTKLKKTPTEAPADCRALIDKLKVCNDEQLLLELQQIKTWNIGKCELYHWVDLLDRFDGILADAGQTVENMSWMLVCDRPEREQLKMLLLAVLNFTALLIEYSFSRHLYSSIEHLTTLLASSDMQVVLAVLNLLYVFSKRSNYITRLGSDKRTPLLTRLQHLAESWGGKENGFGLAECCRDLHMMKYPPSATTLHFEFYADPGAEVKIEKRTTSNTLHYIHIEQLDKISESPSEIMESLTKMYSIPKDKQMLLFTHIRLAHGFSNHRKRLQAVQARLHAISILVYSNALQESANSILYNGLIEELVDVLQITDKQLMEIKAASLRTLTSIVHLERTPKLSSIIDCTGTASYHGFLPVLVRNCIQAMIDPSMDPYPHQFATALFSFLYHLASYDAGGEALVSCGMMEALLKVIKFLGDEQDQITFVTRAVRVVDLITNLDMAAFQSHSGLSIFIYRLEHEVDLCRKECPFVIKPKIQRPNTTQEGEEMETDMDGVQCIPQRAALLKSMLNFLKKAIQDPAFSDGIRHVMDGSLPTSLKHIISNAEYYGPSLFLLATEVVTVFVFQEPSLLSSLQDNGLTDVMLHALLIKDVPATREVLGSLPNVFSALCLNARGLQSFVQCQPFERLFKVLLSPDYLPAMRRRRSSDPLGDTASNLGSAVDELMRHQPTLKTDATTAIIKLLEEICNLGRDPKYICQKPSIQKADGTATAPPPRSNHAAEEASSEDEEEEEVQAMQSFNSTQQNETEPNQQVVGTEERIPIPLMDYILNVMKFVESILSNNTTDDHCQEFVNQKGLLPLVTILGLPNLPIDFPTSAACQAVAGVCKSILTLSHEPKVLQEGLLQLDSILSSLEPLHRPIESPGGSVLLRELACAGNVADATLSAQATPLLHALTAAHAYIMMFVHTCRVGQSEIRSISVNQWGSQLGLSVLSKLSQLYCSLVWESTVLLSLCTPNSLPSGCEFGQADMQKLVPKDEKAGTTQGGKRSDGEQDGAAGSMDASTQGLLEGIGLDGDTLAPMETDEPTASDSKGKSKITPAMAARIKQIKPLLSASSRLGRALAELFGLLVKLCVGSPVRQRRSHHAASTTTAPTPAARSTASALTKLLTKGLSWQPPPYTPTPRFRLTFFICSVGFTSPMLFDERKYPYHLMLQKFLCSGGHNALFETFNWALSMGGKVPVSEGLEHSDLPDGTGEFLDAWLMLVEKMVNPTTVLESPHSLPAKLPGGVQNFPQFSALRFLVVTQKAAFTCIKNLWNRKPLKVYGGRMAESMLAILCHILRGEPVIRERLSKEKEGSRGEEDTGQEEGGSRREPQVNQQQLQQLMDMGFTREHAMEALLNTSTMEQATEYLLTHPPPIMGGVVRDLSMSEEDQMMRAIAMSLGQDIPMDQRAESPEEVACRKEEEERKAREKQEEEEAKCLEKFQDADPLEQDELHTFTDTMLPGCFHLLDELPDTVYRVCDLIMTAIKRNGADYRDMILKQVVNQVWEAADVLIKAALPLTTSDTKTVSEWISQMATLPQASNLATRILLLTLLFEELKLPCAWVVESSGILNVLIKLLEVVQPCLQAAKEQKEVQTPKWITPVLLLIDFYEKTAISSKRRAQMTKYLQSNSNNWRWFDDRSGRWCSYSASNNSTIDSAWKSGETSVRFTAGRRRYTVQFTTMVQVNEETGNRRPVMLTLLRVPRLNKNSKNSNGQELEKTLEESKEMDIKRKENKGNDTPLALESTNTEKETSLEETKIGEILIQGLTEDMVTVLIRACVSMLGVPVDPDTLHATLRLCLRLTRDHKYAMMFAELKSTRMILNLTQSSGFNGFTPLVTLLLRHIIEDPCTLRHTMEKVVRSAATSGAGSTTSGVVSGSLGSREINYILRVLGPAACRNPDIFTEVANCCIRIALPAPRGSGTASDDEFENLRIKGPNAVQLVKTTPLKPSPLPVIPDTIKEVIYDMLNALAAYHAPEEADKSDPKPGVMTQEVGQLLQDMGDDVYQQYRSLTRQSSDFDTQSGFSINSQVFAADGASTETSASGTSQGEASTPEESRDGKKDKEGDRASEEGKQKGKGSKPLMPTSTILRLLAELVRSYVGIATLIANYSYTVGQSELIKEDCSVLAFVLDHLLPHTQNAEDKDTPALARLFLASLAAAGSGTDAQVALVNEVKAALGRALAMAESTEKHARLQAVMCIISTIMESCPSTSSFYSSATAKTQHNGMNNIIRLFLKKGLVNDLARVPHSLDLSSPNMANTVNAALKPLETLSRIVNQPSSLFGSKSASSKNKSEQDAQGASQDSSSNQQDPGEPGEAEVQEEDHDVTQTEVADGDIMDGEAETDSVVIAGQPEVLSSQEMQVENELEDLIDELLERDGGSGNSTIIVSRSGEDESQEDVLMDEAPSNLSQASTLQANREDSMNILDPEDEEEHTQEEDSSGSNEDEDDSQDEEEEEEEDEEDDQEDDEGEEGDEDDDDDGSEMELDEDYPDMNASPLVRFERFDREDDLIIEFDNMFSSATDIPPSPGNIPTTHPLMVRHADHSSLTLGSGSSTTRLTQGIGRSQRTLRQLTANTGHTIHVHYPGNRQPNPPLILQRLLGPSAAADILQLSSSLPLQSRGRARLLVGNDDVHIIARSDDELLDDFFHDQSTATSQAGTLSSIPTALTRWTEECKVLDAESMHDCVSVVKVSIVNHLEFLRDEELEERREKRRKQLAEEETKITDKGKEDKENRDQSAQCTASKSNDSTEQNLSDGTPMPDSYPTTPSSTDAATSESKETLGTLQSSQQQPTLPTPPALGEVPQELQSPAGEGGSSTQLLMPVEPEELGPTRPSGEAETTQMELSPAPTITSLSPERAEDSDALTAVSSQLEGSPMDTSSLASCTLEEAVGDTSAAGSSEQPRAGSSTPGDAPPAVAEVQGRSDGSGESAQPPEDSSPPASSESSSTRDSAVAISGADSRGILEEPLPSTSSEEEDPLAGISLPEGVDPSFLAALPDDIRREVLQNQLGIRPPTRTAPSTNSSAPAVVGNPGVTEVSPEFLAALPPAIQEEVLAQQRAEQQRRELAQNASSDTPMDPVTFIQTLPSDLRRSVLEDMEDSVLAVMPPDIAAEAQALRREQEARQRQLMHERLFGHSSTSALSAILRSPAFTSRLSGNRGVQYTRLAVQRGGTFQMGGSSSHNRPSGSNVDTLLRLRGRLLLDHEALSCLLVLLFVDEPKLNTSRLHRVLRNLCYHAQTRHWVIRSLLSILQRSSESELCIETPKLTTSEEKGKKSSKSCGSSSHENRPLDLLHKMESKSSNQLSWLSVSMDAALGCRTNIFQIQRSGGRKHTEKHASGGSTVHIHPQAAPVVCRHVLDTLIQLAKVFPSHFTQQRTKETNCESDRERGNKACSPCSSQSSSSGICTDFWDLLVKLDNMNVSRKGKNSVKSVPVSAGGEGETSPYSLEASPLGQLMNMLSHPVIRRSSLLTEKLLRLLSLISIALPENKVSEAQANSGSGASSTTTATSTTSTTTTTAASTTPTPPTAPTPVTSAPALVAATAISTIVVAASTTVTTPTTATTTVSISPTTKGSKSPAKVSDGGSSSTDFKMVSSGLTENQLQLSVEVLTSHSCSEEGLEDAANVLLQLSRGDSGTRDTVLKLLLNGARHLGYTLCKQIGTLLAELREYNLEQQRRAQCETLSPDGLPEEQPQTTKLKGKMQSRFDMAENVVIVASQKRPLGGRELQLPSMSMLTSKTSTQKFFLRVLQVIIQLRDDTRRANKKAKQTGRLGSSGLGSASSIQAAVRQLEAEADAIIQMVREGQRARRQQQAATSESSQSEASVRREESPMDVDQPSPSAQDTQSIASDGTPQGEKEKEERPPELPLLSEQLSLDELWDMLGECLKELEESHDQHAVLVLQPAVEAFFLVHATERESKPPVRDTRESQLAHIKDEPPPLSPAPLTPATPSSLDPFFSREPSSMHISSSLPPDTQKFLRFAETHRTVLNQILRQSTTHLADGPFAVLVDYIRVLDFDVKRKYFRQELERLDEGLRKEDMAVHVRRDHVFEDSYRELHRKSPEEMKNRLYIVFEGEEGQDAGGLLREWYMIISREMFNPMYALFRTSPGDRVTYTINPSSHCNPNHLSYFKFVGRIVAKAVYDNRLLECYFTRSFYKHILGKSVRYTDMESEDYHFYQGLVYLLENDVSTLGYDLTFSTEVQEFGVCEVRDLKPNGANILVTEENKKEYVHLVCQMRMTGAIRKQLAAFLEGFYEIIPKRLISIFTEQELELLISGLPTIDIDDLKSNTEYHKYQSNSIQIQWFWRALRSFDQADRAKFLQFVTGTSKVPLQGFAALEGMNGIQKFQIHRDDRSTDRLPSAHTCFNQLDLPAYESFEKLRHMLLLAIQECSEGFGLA
UniProt O75925, residues 2-651: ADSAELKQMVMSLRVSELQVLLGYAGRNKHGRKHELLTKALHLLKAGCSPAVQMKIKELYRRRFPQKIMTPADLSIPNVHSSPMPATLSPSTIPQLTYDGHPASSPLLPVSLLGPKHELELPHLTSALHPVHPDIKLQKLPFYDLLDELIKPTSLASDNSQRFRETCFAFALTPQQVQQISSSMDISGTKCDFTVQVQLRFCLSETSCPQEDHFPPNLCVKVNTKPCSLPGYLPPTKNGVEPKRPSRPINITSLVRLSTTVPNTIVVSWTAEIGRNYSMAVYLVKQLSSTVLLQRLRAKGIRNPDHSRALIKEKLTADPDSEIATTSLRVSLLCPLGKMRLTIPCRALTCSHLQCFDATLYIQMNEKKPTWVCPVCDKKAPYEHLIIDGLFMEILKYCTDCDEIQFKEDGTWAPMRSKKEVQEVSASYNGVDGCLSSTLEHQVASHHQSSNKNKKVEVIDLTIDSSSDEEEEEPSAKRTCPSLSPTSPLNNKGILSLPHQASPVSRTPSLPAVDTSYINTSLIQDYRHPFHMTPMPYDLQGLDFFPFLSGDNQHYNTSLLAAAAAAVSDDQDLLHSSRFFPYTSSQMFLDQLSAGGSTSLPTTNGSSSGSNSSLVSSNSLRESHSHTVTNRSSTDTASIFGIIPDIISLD
UniProt O00308: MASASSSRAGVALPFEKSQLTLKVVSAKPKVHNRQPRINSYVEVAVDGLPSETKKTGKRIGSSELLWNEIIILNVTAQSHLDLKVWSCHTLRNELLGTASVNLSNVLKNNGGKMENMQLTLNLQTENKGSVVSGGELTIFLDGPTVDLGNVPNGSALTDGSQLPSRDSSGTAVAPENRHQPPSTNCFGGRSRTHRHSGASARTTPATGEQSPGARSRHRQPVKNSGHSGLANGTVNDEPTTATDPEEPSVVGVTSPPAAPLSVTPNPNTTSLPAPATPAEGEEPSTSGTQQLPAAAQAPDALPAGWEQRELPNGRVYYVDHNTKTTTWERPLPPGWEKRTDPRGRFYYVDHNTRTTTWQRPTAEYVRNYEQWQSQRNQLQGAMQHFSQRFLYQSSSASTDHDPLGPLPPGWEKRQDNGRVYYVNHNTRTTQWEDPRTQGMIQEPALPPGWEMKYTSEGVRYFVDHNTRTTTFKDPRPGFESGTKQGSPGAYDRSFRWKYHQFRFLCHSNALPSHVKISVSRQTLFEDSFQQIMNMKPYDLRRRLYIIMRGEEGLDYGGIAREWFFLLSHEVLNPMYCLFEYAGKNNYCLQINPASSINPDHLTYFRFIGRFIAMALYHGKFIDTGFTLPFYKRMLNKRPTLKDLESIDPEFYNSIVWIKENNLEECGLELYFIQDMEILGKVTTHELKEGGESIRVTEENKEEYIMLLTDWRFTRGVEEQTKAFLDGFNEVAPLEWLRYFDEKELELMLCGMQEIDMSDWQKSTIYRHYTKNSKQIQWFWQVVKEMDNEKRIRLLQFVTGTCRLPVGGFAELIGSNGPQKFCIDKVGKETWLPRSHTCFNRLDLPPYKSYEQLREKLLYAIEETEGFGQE
UniProt P62993: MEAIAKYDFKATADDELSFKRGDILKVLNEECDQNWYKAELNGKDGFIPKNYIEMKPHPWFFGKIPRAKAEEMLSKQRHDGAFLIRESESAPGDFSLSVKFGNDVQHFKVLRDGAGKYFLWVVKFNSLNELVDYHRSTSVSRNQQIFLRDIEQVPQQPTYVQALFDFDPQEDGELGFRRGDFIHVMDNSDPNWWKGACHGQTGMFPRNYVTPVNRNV

HUWE1 (human) = HUWE1 (human) (UniProt Q7Z6Z7)
MYCBP2 (human) = MYCBP2 (human) (UniProt O75592)
PIAS1 (human) = PIAS1 (human) (UniProt O75925)
PPIL2 (human) = biological target: T2, PPIL2 (human) (UniProt Q13356)
T2 sequence (looked up): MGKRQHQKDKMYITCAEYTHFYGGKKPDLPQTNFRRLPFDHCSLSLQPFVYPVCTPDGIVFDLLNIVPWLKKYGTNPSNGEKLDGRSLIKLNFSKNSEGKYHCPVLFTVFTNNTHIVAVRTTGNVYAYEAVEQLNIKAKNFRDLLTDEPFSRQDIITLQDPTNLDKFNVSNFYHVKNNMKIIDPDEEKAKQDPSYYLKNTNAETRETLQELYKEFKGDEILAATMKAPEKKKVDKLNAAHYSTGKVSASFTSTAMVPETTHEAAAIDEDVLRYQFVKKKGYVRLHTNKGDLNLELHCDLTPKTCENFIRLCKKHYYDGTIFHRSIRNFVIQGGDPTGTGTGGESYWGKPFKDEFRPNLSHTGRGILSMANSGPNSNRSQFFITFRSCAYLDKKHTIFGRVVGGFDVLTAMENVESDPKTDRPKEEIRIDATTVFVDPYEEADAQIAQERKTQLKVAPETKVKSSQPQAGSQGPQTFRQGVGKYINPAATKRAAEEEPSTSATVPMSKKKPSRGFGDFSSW

RAD18 (human) = RAD18 (human) (UniProt Q9NS91)
RANBP2 (human) = RANBP2 (human) (UniProt P49792)
UHRF1 (human) = biological target: T3, UHRF1 (human) (UniProt Q96T88)
T3 sequence (looked up): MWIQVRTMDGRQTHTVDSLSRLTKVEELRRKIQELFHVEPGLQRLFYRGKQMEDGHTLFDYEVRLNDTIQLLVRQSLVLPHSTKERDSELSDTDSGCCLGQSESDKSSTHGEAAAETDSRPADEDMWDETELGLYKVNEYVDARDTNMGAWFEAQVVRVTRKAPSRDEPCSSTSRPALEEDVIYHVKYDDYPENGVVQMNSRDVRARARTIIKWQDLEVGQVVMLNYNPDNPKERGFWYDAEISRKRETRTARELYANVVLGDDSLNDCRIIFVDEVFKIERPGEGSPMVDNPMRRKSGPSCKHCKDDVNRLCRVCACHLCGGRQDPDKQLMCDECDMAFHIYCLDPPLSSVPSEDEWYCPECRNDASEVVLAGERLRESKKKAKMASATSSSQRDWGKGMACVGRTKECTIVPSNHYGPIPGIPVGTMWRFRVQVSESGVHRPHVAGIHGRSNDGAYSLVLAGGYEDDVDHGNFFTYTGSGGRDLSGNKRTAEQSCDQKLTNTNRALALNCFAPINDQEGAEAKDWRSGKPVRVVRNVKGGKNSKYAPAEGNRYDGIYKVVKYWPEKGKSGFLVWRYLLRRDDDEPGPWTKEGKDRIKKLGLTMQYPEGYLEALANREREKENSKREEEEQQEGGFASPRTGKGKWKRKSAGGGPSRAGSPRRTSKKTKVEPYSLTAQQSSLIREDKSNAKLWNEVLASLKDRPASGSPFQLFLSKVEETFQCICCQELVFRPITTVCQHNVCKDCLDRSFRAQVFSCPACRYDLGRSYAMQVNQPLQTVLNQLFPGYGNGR

UHRF2 (human) = biological target: T4, UHRF2 (human) (UniProt Q96PU4)
T4 sequence (looked up): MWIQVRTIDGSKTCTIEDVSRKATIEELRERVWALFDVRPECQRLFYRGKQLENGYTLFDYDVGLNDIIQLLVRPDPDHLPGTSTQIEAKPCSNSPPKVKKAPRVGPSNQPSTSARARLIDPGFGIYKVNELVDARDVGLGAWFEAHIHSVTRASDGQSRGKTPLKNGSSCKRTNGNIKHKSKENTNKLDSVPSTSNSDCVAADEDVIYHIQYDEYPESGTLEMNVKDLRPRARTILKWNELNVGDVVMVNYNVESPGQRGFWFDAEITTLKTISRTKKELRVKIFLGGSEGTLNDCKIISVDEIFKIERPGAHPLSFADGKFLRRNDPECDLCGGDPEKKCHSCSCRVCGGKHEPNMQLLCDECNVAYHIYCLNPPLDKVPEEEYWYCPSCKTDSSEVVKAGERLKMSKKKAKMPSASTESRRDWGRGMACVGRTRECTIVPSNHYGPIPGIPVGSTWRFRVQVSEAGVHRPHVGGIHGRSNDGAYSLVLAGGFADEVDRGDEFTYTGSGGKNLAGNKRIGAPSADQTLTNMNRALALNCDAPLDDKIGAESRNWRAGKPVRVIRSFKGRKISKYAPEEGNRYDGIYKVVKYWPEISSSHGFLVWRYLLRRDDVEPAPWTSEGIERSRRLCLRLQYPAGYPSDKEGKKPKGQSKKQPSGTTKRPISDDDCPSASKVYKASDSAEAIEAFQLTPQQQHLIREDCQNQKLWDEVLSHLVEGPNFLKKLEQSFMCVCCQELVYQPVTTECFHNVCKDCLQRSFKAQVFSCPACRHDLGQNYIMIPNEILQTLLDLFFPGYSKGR

WWP2 (human) = WWP2 (human) (UniProt O00308)

binding (CBX4 (human)): binds
binding (HUWE1 (human)): binds
binding (MYCBP2 (human)): binds
binding (PIAS1 (human)): binds
binding (PPIL2 (human)): binds
binding (RAD18 (human)): binds
binding (RANBP2 (human)): binds
binding (UHRF1 (human)): binds
binding (UHRF2 (human)): binds
binding (WWP2 (human)): binds
Substance: Strep-tagged wild-type GRB2 expressed in cells (HEK293T; reconstituted GRB2-KO cells) (from UniProt P62993 1-217)

Reference: patent US20230366033A1, “METHODS FOR TREATING CANCERS WITH INHIBITORS TARGETING THE ROLE OF GRB2 IN DNA REPAIR” (Board of Regents, The University of Texas System, priority 2020, published 2023)
